This is a selection; strong and weak results do not stand in their true shares.
Compound: COC(=O)C#Cc1ccccc1 [methyl 3-phenylpropiolate]
Test: log2 ratio of iodoacetamide-alkyne labeling of the cysteine site, DMSO over compound (competition); higher = stronger covalent engagement of the cysteine by the compound, active = 1 or more
Settings: 500 µM; treatment time 1 h; system: HEK293T cell lysate
Procedure, shortened: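 For each cysteine, the log2 competition ratio is mean control-channel reporter intensity over mean compound-channel reporter intensity. HEK293T lysate (2 mg/mL) was exposed to vehicle or electrophile (500 µM, 1 h, ambient temperature), labelled with iodoacetamide alkyne (1 h), clicked to sCIP-TMT reagents, digested overnight with trypsin at 37 °C, streptavidin-enriched and analysed by Orbitrap Eclipse LC-MS/MS with FAIMS and FragPipe. Cysteines quantified in only one of three replicates, each with duplicate channels, were excluded.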

Protein sequences, listed by entry. Tags and fused reporters are not part of them. Lines headed by an entry give the natural chain unless they say otherwise; changes in a name come on top.
UniProt Q09028, whole entry, looked up: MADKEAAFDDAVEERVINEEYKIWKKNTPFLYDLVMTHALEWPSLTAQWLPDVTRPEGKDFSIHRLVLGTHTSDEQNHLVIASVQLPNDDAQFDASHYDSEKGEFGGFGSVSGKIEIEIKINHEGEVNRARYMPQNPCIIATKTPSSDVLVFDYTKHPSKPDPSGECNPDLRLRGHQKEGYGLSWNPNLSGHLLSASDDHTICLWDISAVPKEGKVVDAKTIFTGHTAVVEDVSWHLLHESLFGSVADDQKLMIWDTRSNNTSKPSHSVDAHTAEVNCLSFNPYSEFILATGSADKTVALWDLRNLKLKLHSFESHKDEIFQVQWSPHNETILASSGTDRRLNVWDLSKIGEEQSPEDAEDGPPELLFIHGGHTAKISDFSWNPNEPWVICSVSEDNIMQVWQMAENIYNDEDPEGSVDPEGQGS
UniProt Q13418: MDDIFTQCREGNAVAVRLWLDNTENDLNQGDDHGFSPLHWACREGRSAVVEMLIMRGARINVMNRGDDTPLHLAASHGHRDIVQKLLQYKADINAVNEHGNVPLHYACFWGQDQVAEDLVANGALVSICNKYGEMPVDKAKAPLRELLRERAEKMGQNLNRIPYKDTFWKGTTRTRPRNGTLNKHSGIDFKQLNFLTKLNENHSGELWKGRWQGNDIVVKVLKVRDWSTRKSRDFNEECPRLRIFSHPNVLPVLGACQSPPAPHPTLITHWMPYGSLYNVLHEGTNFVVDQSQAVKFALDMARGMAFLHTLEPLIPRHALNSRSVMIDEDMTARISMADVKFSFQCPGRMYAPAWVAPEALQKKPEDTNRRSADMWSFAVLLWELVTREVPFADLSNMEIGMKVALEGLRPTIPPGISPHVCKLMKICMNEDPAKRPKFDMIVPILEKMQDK
UniProt Q12756: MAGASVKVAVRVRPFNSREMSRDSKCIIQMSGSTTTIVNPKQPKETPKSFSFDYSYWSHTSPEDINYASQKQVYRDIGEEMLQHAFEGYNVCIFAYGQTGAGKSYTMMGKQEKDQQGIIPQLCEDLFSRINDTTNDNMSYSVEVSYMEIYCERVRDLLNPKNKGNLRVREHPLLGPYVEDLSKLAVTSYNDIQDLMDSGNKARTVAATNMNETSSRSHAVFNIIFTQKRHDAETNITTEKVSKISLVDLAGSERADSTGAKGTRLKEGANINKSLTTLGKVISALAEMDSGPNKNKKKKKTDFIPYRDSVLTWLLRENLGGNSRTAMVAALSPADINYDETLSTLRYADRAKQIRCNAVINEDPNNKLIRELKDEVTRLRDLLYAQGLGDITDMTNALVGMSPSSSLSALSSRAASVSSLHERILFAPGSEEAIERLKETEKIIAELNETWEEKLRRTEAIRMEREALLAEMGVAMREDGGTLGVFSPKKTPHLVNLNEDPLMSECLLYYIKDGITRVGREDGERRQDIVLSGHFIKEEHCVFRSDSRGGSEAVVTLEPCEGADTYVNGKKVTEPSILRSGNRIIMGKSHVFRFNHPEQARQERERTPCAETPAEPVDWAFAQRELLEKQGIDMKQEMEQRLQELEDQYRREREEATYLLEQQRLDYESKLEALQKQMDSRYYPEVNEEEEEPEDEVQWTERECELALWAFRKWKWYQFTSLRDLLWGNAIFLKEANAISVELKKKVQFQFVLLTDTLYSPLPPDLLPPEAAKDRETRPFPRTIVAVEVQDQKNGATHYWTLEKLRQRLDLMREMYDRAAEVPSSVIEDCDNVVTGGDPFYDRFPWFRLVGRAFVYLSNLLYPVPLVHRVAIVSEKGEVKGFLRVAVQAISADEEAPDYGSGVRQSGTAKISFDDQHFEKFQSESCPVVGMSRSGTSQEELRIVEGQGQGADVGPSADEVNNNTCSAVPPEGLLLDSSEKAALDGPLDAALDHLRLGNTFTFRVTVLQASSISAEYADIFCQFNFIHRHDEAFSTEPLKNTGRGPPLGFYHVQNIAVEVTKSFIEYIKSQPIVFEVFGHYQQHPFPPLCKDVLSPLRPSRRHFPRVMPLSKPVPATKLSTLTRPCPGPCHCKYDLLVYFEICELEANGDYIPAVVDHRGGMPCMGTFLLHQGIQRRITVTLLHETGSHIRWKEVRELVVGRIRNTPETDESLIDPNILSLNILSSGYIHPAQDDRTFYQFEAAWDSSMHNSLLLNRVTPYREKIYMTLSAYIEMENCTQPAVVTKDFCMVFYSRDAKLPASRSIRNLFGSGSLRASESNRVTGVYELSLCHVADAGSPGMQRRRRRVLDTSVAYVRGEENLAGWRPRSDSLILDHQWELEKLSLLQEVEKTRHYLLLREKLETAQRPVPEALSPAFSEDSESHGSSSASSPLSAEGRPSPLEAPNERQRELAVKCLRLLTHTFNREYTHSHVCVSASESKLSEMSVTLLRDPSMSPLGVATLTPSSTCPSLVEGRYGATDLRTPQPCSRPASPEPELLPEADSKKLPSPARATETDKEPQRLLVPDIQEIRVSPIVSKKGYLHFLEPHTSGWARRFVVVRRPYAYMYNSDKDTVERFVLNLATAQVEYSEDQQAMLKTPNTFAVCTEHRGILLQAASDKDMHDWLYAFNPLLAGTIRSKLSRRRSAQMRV
UniProt Q0D2I5: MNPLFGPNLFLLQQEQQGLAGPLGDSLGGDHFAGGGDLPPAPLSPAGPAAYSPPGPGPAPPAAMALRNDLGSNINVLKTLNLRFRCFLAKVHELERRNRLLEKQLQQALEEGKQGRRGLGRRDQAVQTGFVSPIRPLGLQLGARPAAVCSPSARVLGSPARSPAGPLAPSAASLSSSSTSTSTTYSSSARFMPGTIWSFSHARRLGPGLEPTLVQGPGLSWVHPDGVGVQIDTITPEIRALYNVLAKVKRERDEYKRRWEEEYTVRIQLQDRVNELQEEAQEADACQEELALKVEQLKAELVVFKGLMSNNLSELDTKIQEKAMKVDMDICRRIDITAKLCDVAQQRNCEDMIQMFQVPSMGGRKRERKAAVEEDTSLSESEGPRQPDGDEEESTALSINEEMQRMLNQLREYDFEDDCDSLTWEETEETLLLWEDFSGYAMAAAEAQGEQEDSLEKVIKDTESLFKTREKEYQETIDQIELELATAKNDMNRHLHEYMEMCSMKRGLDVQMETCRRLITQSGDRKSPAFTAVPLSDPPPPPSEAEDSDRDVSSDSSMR
UniProt Q09161: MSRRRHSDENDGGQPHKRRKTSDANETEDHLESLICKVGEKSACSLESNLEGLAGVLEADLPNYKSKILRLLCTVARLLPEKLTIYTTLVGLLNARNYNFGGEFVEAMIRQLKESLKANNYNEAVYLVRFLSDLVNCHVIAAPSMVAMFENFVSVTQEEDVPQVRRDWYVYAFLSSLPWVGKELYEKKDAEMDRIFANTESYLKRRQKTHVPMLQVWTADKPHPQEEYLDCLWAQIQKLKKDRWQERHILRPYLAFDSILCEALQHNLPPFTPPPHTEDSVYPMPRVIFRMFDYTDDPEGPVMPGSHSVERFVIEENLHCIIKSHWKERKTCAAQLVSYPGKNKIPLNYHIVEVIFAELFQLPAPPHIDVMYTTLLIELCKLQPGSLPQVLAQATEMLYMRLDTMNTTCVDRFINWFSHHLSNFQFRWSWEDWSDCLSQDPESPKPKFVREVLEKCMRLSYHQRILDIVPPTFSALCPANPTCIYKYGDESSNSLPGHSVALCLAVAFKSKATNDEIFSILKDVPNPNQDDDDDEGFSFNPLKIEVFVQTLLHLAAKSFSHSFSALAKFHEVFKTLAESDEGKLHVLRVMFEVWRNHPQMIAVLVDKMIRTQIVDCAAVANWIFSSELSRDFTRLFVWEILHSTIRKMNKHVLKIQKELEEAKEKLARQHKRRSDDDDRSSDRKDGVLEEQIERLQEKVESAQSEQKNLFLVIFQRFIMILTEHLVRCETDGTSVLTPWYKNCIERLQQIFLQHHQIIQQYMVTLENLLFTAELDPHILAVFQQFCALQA
UniProt Q13395: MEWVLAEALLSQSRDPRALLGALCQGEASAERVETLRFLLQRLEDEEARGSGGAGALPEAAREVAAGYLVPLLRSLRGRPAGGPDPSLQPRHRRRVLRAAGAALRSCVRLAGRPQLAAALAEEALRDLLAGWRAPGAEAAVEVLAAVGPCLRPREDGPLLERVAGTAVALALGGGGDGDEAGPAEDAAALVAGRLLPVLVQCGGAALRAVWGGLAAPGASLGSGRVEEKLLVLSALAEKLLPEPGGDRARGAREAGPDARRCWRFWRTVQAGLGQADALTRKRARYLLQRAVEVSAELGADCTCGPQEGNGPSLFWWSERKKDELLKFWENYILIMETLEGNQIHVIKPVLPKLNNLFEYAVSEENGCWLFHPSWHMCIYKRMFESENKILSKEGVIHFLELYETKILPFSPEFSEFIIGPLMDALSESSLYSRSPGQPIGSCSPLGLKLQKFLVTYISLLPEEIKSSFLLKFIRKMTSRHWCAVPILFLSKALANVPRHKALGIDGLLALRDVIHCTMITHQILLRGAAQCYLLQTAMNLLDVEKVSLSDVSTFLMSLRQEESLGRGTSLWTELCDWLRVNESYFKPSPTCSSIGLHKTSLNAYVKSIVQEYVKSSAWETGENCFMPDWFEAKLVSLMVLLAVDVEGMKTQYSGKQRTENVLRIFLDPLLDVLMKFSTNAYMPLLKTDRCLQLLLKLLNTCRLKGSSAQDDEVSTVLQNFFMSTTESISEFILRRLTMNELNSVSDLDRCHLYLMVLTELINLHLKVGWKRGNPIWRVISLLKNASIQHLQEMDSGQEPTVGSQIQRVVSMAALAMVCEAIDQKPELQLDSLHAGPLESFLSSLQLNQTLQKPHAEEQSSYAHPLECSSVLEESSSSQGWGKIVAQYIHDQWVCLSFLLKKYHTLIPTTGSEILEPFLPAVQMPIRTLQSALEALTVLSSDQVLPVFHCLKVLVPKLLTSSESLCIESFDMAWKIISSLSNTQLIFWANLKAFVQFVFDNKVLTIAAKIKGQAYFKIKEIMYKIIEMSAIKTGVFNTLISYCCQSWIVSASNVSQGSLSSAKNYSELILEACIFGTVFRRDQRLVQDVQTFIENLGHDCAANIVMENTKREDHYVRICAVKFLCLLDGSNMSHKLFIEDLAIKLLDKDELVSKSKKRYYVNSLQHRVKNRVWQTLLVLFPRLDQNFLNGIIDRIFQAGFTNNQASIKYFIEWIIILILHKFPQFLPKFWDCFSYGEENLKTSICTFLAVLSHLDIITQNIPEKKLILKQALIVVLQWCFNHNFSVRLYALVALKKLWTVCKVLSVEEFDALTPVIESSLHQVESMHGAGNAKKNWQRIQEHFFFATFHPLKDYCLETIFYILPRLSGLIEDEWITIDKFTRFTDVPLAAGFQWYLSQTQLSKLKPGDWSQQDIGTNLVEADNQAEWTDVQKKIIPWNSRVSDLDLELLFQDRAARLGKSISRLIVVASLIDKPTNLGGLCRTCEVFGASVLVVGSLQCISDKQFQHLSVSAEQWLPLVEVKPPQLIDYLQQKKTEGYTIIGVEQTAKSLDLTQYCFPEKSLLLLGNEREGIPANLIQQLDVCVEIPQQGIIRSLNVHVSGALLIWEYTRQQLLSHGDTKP
UniProt Q02930: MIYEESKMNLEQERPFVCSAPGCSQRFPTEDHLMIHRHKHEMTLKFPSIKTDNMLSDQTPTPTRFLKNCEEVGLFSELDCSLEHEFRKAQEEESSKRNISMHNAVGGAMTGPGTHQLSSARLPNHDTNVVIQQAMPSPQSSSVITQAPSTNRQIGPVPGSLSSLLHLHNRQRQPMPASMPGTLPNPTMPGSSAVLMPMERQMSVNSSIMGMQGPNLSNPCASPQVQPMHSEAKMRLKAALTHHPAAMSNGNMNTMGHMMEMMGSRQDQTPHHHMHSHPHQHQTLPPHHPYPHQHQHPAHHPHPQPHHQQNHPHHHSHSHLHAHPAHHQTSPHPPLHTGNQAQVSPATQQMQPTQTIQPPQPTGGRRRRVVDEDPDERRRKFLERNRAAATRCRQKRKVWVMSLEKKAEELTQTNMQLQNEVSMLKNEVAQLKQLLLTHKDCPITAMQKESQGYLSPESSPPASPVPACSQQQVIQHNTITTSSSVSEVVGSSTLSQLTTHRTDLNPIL
UniProt Q04206, whole entry, looked up: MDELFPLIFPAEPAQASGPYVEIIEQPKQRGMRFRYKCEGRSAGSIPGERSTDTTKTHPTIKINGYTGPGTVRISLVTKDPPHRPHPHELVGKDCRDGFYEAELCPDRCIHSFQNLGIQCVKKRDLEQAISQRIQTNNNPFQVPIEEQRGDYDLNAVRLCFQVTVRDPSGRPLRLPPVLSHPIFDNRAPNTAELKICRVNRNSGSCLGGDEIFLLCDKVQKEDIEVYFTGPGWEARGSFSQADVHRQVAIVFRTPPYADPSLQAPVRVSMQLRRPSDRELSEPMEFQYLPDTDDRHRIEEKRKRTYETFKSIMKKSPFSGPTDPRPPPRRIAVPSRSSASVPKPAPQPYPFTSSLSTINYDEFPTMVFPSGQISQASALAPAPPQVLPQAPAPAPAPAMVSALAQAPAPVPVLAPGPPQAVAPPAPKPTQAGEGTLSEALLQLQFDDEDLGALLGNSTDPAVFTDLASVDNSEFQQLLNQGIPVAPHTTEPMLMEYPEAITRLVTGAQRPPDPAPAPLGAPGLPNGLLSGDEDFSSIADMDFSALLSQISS

Row | Target | log2 ratio of iodoacetamide-alkyne labeling
1 | EEF1A2 C411 (UniProt Q05639) | inactive: 0.518
2 | UniProt Q09028_C167 | inactive: 0.199
3 | UniProt Q12824_C167 | inactive: 0.143
4 | TRIM28 C65 (UniProt Q13263) | inactive: -0.087
5 | CAMSAP2 C1416 (UniProt Q08AD1) | inactive: 0.764
6 | RPL6 C44 (UniProt Q02878) | inactive: 0.726
7 | EIF4G1 C819 (UniProt Q04637) | inactive: 0.142
8 | ILK C239 (UniProt Q13418) | inactive: 0.769
9 | EXOSC9 C9 (UniProt Q06265) | inactive: 0.307
10 | CEBPZ C282 (UniProt Q03701) | inactive: 0.575
11 | AP1B1 C123 (UniProt Q10567) | inactive: 0.316
12 | RPL18A C22 (UniProt Q02543) | inactive: 0.313
13 | UBE3A C198 (UniProt Q05086) | inactive: 0.354
14 | UniProt Q02750_C376 | inactive: -0.129
15 | KIF1A C609 (UniProt Q12756) | inactive: 0.332
16 | UniProt Q0D2I5_C349 | inactive: 0.944
17 | NCBP1 C616 (UniProt Q09161) | inactive: 0.123
18 | CTBP1 C134 (UniProt Q13363) | inactive: -0.0572
19 | MTA1 C229 (UniProt Q13330) | inactive: 0.124

An excerpt from the list above:
Row | Target | log2 ratio of iodoacetamide-alkyne labeling
6 | RPL6 C44 (UniProt Q02878) | inactive: 0.726
7 | EIF4G1 C819 (UniProt Q04637) | inactive: 0.142
8 | ILK C239 (UniProt Q13418) | inactive: 0.769

Remaining list, next part.

Row | Target | log2 ratio of iodoacetamide-alkyne labeling
20 | MTA1 C512 (UniProt Q13330) | inactive: 0.481
21 | ILK C346 (UniProt Q13418) | active: 1.8
22 | CSTF3 C628 (UniProt Q12996) | inactive: 0.491
23 | TARBP1 C483 (UniProt Q13395) | active: 1.21
24 | AHNAK C2162 (UniProt Q09666) | inactive: 0.564
25 | UniProt Q02930_C80 | active: 1.09
26 | HNRNPA0 C49 (UniProt Q13151) | inactive: 0.0396
27 | UBE3A C140 (UniProt Q05086) | inactive: 0.0641
28 | GFPT1 C2 (UniProt Q06210) | inactive: -0.0189
29 | RELA C105 (UniProt Q04206) | inactive: 0.896
30 | NCBP1 C261 (UniProt Q09161) | inactive: 0.0607
31 | TP53BP1 C772 (UniProt Q12888) | inactive: 0.224
32 | NSUN2 C184 (UniProt Q08J23) | inactive: -0.0329
33 | SOS1 C926 (UniProt Q07889) | inactive: -0.0185
34 | EP300 C1164 (UniProt Q09472) | inactive: 0.615
35 | NSUN2 C599 (UniProt Q08J23) | inactive: 0.0845
36 | GABPA C338 (UniProt Q06546) | inactive: 0.308
37 | AHNAK C1967 (UniProt Q09666) | inactive: 0.463

Reference: the supplement of paper PMC11006884
